Here are results for two molecules from PubChem BioAssay AID1845228.

SMILES strings stand for the structures.

The conditions of the series: pampa; 60.0 min; 50.0 µM.

Broadly, the Papp is the rate of passage across a membrane or cell layer, normalised by area and donor concentration. Read a high Papp as ready permeation. `C[C@@H](O)[C@H]1C(=O)N2C(C(=O)OCOC(=O)C(C)(C)C)=C(SC3CN(C4=NCCS4)C3)[C@H](C)[C@H]12`: the Papp stood at 17 ×10⁻⁶ cm/s.
The figure for `C[C@@H]1COCCN1c1cc(-c2ccnn2C)c2ccnc(-c3ccn[nH]3)c2n1` is 60.1 ×10⁻⁶ cm/s.
